US20110009319A1
These are yes or no findings as the source states them, for the method shown. Binding can be weak; no strength is given.

Target: Cripto mCFC mutant (H104G, W107G) (mouse)
Test: activin crosslinking assays with co-expressed type II receptors

binding: binds
B1: activin-A (ligand, UniProt P08476 311-426, looked up)
chain: GLECDGKVNICCKKQFFVSFKDIGWNDWIIAPSGYHANYCEGECPSHIAGTSGSSLSFHSTVINHYRMRGHSPFANLKSCCVPTKLRPMSMLYYDDGQNIIKKDIQNMIVEECGCS
modifications: [125I] label in the crosslinking assays (site not stated)
